Laboratory results as given in publication doi:10.1101/631440.
Results are given in words; binding and its absence hold for the method and conditions named. Binding seen in cells or lysates may run through a third protein. Some binding calls cover weakened binding; strength is not graded here.

Sequences of proteins named here, by UniProt entry; tags and fusion partners are left off.
UniProt Q9EQT3: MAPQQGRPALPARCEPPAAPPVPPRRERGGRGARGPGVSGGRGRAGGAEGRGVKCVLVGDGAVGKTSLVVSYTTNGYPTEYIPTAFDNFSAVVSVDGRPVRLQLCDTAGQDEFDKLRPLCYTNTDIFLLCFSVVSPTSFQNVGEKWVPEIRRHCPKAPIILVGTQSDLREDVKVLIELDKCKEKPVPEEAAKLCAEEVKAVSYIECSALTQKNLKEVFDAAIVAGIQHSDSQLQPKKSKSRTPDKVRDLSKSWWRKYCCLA
UniProt Q15811: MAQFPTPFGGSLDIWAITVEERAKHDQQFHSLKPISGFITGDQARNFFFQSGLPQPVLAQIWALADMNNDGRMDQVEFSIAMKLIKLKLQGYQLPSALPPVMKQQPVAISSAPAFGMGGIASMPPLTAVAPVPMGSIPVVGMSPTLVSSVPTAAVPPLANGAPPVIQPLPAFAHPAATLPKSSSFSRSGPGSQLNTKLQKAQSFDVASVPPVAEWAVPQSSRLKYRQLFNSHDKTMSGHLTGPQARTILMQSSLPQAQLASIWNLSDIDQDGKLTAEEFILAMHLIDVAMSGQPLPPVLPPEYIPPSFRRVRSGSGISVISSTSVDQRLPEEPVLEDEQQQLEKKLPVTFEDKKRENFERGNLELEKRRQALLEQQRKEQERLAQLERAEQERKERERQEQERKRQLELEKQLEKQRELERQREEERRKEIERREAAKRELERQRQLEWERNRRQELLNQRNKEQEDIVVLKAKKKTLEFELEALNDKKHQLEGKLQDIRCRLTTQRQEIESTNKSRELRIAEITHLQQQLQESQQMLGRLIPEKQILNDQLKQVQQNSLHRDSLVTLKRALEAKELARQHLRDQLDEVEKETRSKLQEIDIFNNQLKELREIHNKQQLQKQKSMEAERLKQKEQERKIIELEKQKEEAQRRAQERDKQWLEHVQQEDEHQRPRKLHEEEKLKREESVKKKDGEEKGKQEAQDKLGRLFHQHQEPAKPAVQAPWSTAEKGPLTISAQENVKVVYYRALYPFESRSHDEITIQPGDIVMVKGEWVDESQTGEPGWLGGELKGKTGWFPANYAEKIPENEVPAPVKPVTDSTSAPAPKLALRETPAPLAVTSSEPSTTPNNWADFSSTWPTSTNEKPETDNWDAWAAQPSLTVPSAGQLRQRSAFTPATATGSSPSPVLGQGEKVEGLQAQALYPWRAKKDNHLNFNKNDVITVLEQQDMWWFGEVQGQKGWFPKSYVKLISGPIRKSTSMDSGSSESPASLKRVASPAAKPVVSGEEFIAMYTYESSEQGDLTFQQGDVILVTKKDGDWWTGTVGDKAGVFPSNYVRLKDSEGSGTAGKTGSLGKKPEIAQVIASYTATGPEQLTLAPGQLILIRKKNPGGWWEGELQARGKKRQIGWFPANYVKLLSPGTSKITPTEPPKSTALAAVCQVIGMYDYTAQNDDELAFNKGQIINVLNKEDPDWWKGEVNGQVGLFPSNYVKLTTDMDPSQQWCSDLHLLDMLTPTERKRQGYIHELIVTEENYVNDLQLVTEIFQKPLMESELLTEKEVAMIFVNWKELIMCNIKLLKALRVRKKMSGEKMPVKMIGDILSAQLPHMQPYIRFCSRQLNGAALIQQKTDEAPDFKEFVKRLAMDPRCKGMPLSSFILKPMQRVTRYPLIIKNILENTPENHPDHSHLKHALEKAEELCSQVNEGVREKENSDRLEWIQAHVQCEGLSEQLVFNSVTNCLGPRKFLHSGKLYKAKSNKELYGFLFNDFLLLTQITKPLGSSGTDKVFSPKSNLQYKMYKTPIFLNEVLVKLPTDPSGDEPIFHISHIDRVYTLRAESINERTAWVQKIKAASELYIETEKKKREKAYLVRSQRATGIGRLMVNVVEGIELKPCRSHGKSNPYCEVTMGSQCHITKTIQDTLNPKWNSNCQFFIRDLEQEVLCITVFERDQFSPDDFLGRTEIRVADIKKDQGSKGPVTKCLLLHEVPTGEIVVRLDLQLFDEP

What was measured:
[1] = target: myc-tagged WT RhoU (mouse) (mouse) (UniProt Q9EQT3); experiment: co-IP
[2] = target: endogenous ITSN1-L (human (endogenous in HEK293T)) (UniProt Q15811); experiment: co-IP

| binding [1] | binding [2] | Substance |
| --- | --- | --- |
| binds |  | Omni-tagged ITSN1-L (from UniProt Q15811 1-1721) |
| binds |  | endogenous ITSN2-L (from UniProt Q9NZM3-1 1-1697) |
|  | binds | myc-tagged WT RhoU (mouse) (from UniProt Q9EQT3 1-261) |
